Test results reported in article PMC3716640.
Results are given in words; binding and its absence hold for the method and conditions named. For some assays here: In cells and extracts the contact can be indirect. Some results given as binding are weak or reduced against the parent protein; the word gives no strength. Where a sequence is shown, tags or fusion partners need not be part of it.

T1: GST-RasGEF1B, bacteria purified (UniProt Q0VAM2)
T1 sequence: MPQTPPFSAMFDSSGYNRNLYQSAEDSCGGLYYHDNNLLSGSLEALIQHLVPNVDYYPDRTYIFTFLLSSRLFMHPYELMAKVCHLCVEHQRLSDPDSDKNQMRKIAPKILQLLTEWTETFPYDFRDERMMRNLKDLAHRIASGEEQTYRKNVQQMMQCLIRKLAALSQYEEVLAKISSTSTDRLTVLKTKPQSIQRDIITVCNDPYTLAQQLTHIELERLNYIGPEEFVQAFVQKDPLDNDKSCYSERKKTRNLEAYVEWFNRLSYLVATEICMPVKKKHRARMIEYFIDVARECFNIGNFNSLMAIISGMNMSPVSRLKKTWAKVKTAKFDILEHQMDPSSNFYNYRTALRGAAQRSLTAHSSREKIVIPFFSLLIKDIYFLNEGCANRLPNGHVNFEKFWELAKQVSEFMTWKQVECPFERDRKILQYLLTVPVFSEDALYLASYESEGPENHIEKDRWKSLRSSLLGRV

T2: Flag-Ccdc124 (N-terminus flag-tagged Ccdc124) (human) (UniProt Q96CT7)
T2 sequence: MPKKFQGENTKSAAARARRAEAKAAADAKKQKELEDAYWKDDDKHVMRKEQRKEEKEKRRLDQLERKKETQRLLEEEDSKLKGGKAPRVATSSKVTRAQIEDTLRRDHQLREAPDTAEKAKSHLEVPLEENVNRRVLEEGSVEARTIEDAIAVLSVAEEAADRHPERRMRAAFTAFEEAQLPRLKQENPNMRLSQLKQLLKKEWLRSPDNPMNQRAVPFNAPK


Assays:
[1] = target: T1, GST-RasGEF1B, bacteria purified; assay: pull-down; 200 µg GST-RasGEF1B immobilised on GSH beads, incubated with 500 µg His-Ccdc124 at 4°C for 1 hour; 50 mM Tris HCl pH 7.5, 100 mM NaCl, 3 mM β-mercaptoethanol; 10 washes; Coomassie-stained gel; both purified
[2] = target: T2, Flag-Ccdc124 (N-terminus flag-tagged Ccdc124) (human); assay: co-IP; HEK-293 cells co-transfected; NP-40 lysis buffer; precipitation by anti-Flag beads; immunoblots with anti-GFP and anti-Flag-HRP

Binder | binding [1] | binding [2]
His-tagged Ccdc124, bacteria purified (protein, UniProt Q96CT7 1-223) MPKKFQGENTKSAAARARRAEAKAAADAKKQKELEDAYWKDDDKHVMRKEQRKEEKEKRRLDQLERKKETQRLLEEEDSKLKGGKAPRVATSSKVTRAQIEDTLRRDHQLREAPDTAEKAKSHLEVPLEENVNRRVLEEGSVEARTIEDAIAVLSVAEEAADRHPERRMRAAFTAFEEAQLPRLKQENPNMRLSQLKQLLKKEWLRSPDNPMNQRAVPFNAPK | binds | 
GFP-RasGEF1B (protein, UniProt Q0VAM2 1-473) MPQTPPFSAMFDSSGYNRNLYQSAEDSCGGLYYHDNNLLSGSLEALIQHLVPNVDYYPDRTYIFTFLLSSRLFMHPYELMAKVCHLCVEHQRLSDPDSDKNQMRKIAPKILQLLTEWTETFPYDFRDERMMRNLKDLAHRIASGEEQTYRKNVQQMMQCLIRKLAALSQYEEVLAKISSTSTDRLTVLKTKPQSIQRDIITVCNDPYTLAQQLTHIELERLNYIGPEEFVQAFVQKDPLDNDKSCYSERKKTRNLEAYVEWFNRLSYLVATEICMPVKKKHRARMIEYFIDVARECFNIGNFNSLMAIISGMNMSPVSRLKKTWAKVKTAKFDILEHQMDPSSNFYNYRTALRGAAQRSLTAHSSREKIVIPFFSLLIKDIYFLNEGCANRLPNGHVNFEKFWELAKQVSEFMTWKQVECPFERDRKILQYLLTVPVFSEDALYLASYESEGPENHIEKDRWKSLRSSLLGRV |  | binds
